No constants are given. Whether binding was seen depends on the method and setting. In cells and extracts the contact can be indirect. These calls come from enrichment with a bait or labelling near it, and not all partners need be listed.
Biological target: Hypoxia-induced gene domain protein-1a (HIGD1A) (human (endogenous in HK-2))
Assay: affinity purification with mass spectrometry; Co-IP of HIGD1A coupled with LC-MS/MS, HK-2 cells, basal and AA-exposed

B1: mitochondrial transcription factor A (TFAM) (protein, UniProt Q00059 43-246)
chain: SSVLASCPKKPVSSYLRFSKEQLPIFKAQNPDAKTTELIRRIAQRWRELPDSKKKIYQDAYRAEWQVYKEEISRFKEQLTPSQIMSLEKEIMDKHLKRKAMTKKKELTLLGKPKRPRSAYNVYVAERFQEAKGDSPQEKLKTVKENWKNLSDSEKELYIQHAKEDETRYHNEMKSWEEQMIEVGRKDLLRRTIKKQRKYGAEEC
B1 was tested, and the binding was “binds”.

Source: PMC12850329
